In the supplement of paper PMC11546906:
Counter-ions that a name gives are not always drawn. Some of the results follow. This data set is noisy: repeats of one test often differ as much as different tests do.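 A screen tested FDA-approved drugs combined with one-eighth-MIC colistin against a clinical mcr-1-positive, multidrug-resistant E. coli isolate, measuring OD600 at 24 h. Controls were untreated bacteria (growth) and broth alone (blank). An OD600 under 0.2 marked a combination as active.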

Test system: Escherichia coli 42 (mcr-1-positive clinical isolate)
Assay: OD600 after 24 h growth with compound plus colistin (absorbance units (OD600)); higher = more bacterial growth (less inhibition)
Settings: first compound 25 µM; colistin concentration 0.5 ug/mL; incubation time 24 h; 37 °C

CC[C@@]1(O)C(=O)OCc2c1cc1n(c2=O)Cc2cc3c(CN(C)C)c(O)ccc3nc2-1 [Topotecan hydrochloride] + CCC(C)CCCC(=O)N[C@@H](CCN)C(=O)N[C@H](C(=O)N[C@@H](CCN)C(=O)N[C@H]1CCNC(=O)[C@H]([C@@H](C)O)NC(=O)[C@H](CCN)NC(=O)[C@H](CCN)NC(=O)[C@H](CC(C)C)NC(=O)[C@@H](CC(C)C)NC(=O)[C@H](CCN)NC1=O)[C@@H](C)O [colistin]
OD600: inactive: 1.11

Cc1ccnc2c1NC(=O)c1cccnc1N2C1CC1 [Nevirapine] + CCC(C)CCCC(=O)N[C@@H](CCN)C(=O)N[C@H](C(=O)N[C@@H](CCN)C(=O)N[C@H]1CCNC(=O)[C@H]([C@@H](C)O)NC(=O)[C@H](CCN)NC(=O)[C@H](CCN)NC(=O)[C@H](CC(C)C)NC(=O)[C@@H](CC(C)C)NC(=O)[C@H](CCN)NC1=O)[C@@H](C)O [colistin]
OD600: inactive: 1.06

CC[C@H]1OC(=O)[C@H](C)[C@@H](O[C@H]2C[C@@](C)(OC)[C@@H](O)[C@H](C)O2)[C@H](C)[C@@H](O[C@@H]2O[C@H](C)C[C@H](N(C)C)[C@H]2O)[C@](C)(OC)C[C@@H](C)C(=O)[C@H](C)[C@@H](O)[C@]1(C)O [Clarithromycin] + CCC(C)CCCC(=O)N[C@@H](CCN)C(=O)N[C@H](C(=O)N[C@@H](CCN)C(=O)N[C@H]1CCNC(=O)[C@H]([C@@H](C)O)NC(=O)[C@H](CCN)NC(=O)[C@H](CCN)NC(=O)[C@H](CC(C)C)NC(=O)[C@@H](CC(C)C)NC(=O)[C@H](CCN)NC1=O)[C@@H](C)O [colistin]
OD600: active: 0.036

Cc1c(Nc2ncccc2C(=O)O)cccc1C(F)(F)F [Flunixin meglumine] + CCC(C)CCCC(=O)N[C@@H](CCN)C(=O)N[C@H](C(=O)N[C@@H](CCN)C(=O)N[C@H]1CCNC(=O)[C@H]([C@@H](C)O)NC(=O)[C@H](CCN)NC(=O)[C@H](CCN)NC(=O)[C@H](CC(C)C)NC(=O)[C@@H](CC(C)C)NC(=O)[C@H](CCN)NC1=O)[C@@H](C)O [colistin]
OD600: inactive: 1.06

NCC(=O)CCC(=O)O [5-Aminolevulinic acid hydrochloride] + CCC(C)CCCC(=O)N[C@@H](CCN)C(=O)N[C@H](C(=O)N[C@@H](CCN)C(=O)N[C@H]1CCNC(=O)[C@H]([C@@H](C)O)NC(=O)[C@H](CCN)NC(=O)[C@H](CCN)NC(=O)[C@H](CC(C)C)NC(=O)[C@@H](CC(C)C)NC(=O)[C@H](CCN)NC1=O)[C@@H](C)O [colistin]
OD600: inactive: 1.08

Cc1cc(NS(=O)(=O)c2ccc(N)cc2)no1 [Sulfamethoxazole] + CCC(C)CCCC(=O)N[C@@H](CCN)C(=O)N[C@H](C(=O)N[C@@H](CCN)C(=O)N[C@H]1CCNC(=O)[C@H]([C@@H](C)O)NC(=O)[C@H](CCN)NC(=O)[C@H](CCN)NC(=O)[C@H](CC(C)C)NC(=O)[C@@H](CC(C)C)NC(=O)[C@H](CCN)NC1=O)[C@@H](C)O [colistin]
OD600: inactive: 1.11

C[C@@H](c1nc(-c2ccc(C#N)cc2)cs1)[C@](O)(Cn1cncn1)c1cc(F)ccc1F [Isavuconazole] + CCC(C)CCCC(=O)N[C@@H](CCN)C(=O)N[C@H](C(=O)N[C@@H](CCN)C(=O)N[C@H]1CCNC(=O)[C@H]([C@@H](C)O)NC(=O)[C@H](CCN)NC(=O)[C@H](CCN)NC(=O)[C@H](CC(C)C)NC(=O)[C@@H](CC(C)C)NC(=O)[C@H](CCN)NC1=O)[C@@H](C)O [colistin]
OD600: inactive: 0.935

CN(C)C(=O)C(CCN1CCC(O)(c2ccc(Cl)cc2)CC1)(c1ccccc1)c1ccccc1 [Loperamide hydrochloride] + CCC(C)CCCC(=O)N[C@@H](CCN)C(=O)N[C@H](C(=O)N[C@@H](CCN)C(=O)N[C@H]1CCNC(=O)[C@H]([C@@H](C)O)NC(=O)[C@H](CCN)NC(=O)[C@H](CCN)NC(=O)[C@H](CC(C)C)NC(=O)[C@@H](CC(C)C)NC(=O)[C@H](CCN)NC1=O)[C@@H](C)O [colistin]
OD600: inactive: 0.981

O=C(O)Cc1ccccc1Nc1c(Cl)cccc1Cl [Diclofenac] + CCC(C)CCCC(=O)N[C@@H](CCN)C(=O)N[C@H](C(=O)N[C@@H](CCN)C(=O)N[C@H]1CCNC(=O)[C@H]([C@@H](C)O)NC(=O)[C@H](CCN)NC(=O)[C@H](CCN)NC(=O)[C@H](CC(C)C)NC(=O)[C@@H](CC(C)C)NC(=O)[C@H](CCN)NC1=O)[C@@H](C)O [colistin]
OD600: inactive: 0.916

CCCc1nc(C(C)(C)O)c(C(=O)OCc2oc(=O)oc2C)n1Cc1ccc(-c2ccccc2-c2nnn[nH]2)cc1 [Olmesartan Medoxomil] + CCC(C)CCCC(=O)N[C@@H](CCN)C(=O)N[C@H](C(=O)N[C@@H](CCN)C(=O)N[C@H]1CCNC(=O)[C@H]([C@@H](C)O)NC(=O)[C@H](CCN)NC(=O)[C@H](CCN)NC(=O)[C@H](CC(C)C)NC(=O)[C@@H](CC(C)C)NC(=O)[C@H](CCN)NC1=O)[C@@H](C)O [colistin]
OD600: inactive: 0.977

NC(=O)Cc1cccc(C(=O)c2ccccc2)c1N [Nepafenac] + CCC(C)CCCC(=O)N[C@@H](CCN)C(=O)N[C@H](C(=O)N[C@@H](CCN)C(=O)N[C@H]1CCNC(=O)[C@H]([C@@H](C)O)NC(=O)[C@H](CCN)NC(=O)[C@H](CCN)NC(=O)[C@H](CC(C)C)NC(=O)[C@@H](CC(C)C)NC(=O)[C@H](CCN)NC1=O)[C@@H](C)O [colistin]
OD600: inactive: 1.05

OCCOCCN1CCN(C2=Nc3ccccc3Sc3ccccc32)CC1 [Quetiapine] + CCC(C)CCCC(=O)N[C@@H](CCN)C(=O)N[C@H](C(=O)N[C@@H](CCN)C(=O)N[C@H]1CCNC(=O)[C@H]([C@@H](C)O)NC(=O)[C@H](CCN)NC(=O)[C@H](CCN)NC(=O)[C@H](CC(C)C)NC(=O)[C@@H](CC(C)C)NC(=O)[C@H](CCN)NC1=O)[C@@H](C)O [colistin]
OD600: inactive: 1.08

CNCCCC12CCC(c3ccccc31)c1ccccc12 [Maprotiline hydrochloride] + CCC(C)CCCC(=O)N[C@@H](CCN)C(=O)N[C@H](C(=O)N[C@@H](CCN)C(=O)N[C@H]1CCNC(=O)[C@H]([C@@H](C)O)NC(=O)[C@H](CCN)NC(=O)[C@H](CCN)NC(=O)[C@H](CC(C)C)NC(=O)[C@@H](CC(C)C)NC(=O)[C@H](CCN)NC1=O)[C@@H](C)O [colistin]
OD600: inactive: 1.06

C[C@@H]1CN(c2c(F)c(N)c3c(=O)c(C(=O)O)cn(C4CC4)c3c2F)C[C@H](C)N1 [Sparfloxacin] + CCC(C)CCCC(=O)N[C@@H](CCN)C(=O)N[C@H](C(=O)N[C@@H](CCN)C(=O)N[C@H]1CCNC(=O)[C@H]([C@@H](C)O)NC(=O)[C@H](CCN)NC(=O)[C@H](CCN)NC(=O)[C@H](CC(C)C)NC(=O)[C@@H](CC(C)C)NC(=O)[C@H](CCN)NC1=O)[C@@H](C)O [colistin]
OD600: inactive: 0.687

Nc1ccc(S(=O)(=O)c2ccc(N)cc2)cc1 [Dapsone] + CCC(C)CCCC(=O)N[C@@H](CCN)C(=O)N[C@H](C(=O)N[C@@H](CCN)C(=O)N[C@H]1CCNC(=O)[C@H]([C@@H](C)O)NC(=O)[C@H](CCN)NC(=O)[C@H](CCN)NC(=O)[C@H](CC(C)C)NC(=O)[C@@H](CC(C)C)NC(=O)[C@H](CCN)NC1=O)[C@@H](C)O [colistin]
OD600: inactive: 0.906

C#C[C@]1(O)CC[C@H]2[C@@H]3CCC4=CC(=O)CC[C@@H]4[C@H]3CC[C@@]21C [Norethindrone] + CCC(C)CCCC(=O)N[C@@H](CCN)C(=O)N[C@H](C(=O)N[C@@H](CCN)C(=O)N[C@H]1CCNC(=O)[C@H]([C@@H](C)O)NC(=O)[C@H](CCN)NC(=O)[C@H](CCN)NC(=O)[C@H](CC(C)C)NC(=O)[C@@H](CC(C)C)NC(=O)[C@H](CCN)NC1=O)[C@@H](C)O [colistin]
OD600: inactive: 0.809

CCn1cc(C(=O)O)c(=O)c2ccc(C)nc21 [Nalidixic acid sodium salt] + CCC(C)CCCC(=O)N[C@@H](CCN)C(=O)N[C@H](C(=O)N[C@@H](CCN)C(=O)N[C@H]1CCNC(=O)[C@H]([C@@H](C)O)NC(=O)[C@H](CCN)NC(=O)[C@H](CCN)NC(=O)[C@H](CC(C)C)NC(=O)[C@@H](CC(C)C)NC(=O)[C@H](CCN)NC1=O)[C@@H](C)O [colistin]
OD600: inactive: 0.927

OCCN(CCO)c1nc(N2CCCCC2)c2nc(N(CCO)CCO)nc(N3CCCCC3)c2n1 [Dipyridamole] + CCC(C)CCCC(=O)N[C@@H](CCN)C(=O)N[C@H](C(=O)N[C@@H](CCN)C(=O)N[C@H]1CCNC(=O)[C@H]([C@@H](C)O)NC(=O)[C@H](CCN)NC(=O)[C@H](CCN)NC(=O)[C@H](CC(C)C)NC(=O)[C@@H](CC(C)C)NC(=O)[C@H](CCN)NC1=O)[C@@H](C)O [colistin]
OD600: inactive: 0.858

CC(C)NCC(O)COc1cccc2ccccc12 (centres undefined) [Propranolol hydrochloride] + CCC(C)CCCC(=O)N[C@@H](CCN)C(=O)N[C@H](C(=O)N[C@@H](CCN)C(=O)N[C@H]1CCNC(=O)[C@H]([C@@H](C)O)NC(=O)[C@H](CCN)NC(=O)[C@H](CCN)NC(=O)[C@H](CC(C)C)NC(=O)[C@@H](CC(C)C)NC(=O)[C@H](CCN)NC1=O)[C@@H](C)O [colistin]
OD600: inactive: 0.82
